Measured values from the supplement of paper PMC6418307.
Single values of this set are uncertain.

System: primary mouse cortical neurons
Test: cell health score (luciferase spike-in reads / total reads per well) (fraction); higher = fewer cellular reads, worse cell health / toxicity
Settings: treatment time 24 h
[1] = 0.01 µM, sex of neuron culture: Female
[2] = 0.01 µM, sex of neuron culture: Male
[3] = 0.1 µM, sex of neuron culture: Female
[4] = 0.1 µM, sex of neuron culture: Male
[5] = 1 µM, sex of neuron culture: Female
[6] = 1 µM, sex of neuron culture: Male
[7] = 10 µM, sex of neuron culture: Female
[8] = 10 µM, sex of neuron culture: Male

Structure (SMILES)	cell health score [1]	cell health score [2]	cell health score [3]	cell health score [4]	cell health score [5]	cell health score [6]	cell health score [7]	cell health score [8]
CO/N=C(/C(=O)OC)c1ccccc1CO/N=C(\C)c1cccc(C(F)(F)F)c1 [Trifloxystrobin]	0.00253	0.0134	0.00529	0.0163	0.00665	0.014	0.0198	0.0357
COc1cc(OC)nc(NC(=O)NS(=O)(=O)c2ncccc2OCC(F)(F)F)n1 [Trifloxysulfuron-sodium]	0.000566	0.000733	0.00126	0.000954	0.0011	0.000761	0.00115	0.000551
CCCOC/C(=N\c1ccc(Cl)cc1C(F)(F)F)n1ccnc1 [Triflumizole]	0.000871	0.000989	0.000422	0.000676	0.000746	0.000873	0.00104	0.000611
CCCN(CCC)c1c([N+](=O)[O-])cc(C(F)(F)F)cc1[N+](=O)[O-] [Trifluralin]	0.00053	0.000677	0.00064	0.000554	0.000764	0.000509	0.000399	0.000554
[OH-].c1cc[c]([Sn+]([c]2ccccc2)[c]2ccccc2)cc1 [Triphenyltin hydroxide]	0.00264	0.00612	0.0021	0.00348	0.0293	0.0132	0.226	–
CC1(C)CC/C(=C\c2ccc(Cl)cc2)C1(O)Cn1cncn1 (centres undefined) [Triticonazole]	0.000705	0.000797	0.00104	0.000858	0.00082	0.000683	0.000908	0.000908
NC(=O)c1nc(Nc2ccccc2)sc1NC(=O)C1CCCCC1 [UNC3230]	0.000521	0.00085	0.000519	0.000585	0.000696	0.000437	0.00104	0.000482
Cc1cc(Nc2cc(N3CCN(C)CC3)nc(Sc3ccc(NC(=O)C4CC4)cc3)n2)n[nH]1 [VX680]	0.00074	0.000783	0.000827	0.000547	0.000663	0.000765	0.00105	0.000796
CCCC(CCC)C(=O)O [Valproic acid]	0.001	0.000947	0.00132	0.00104	0.0014	0.000692	0.00109	0.000641
C=CC1(C)OC(=O)N(c2cc(Cl)cc(Cl)c2)C1=O (centres undefined) [Vinclozolin]	0.000557	0.000782	0.000859	0.000771	0.000849	0.000735	0.00125	0.000581
CC[C@]1(O)C[C@H]2CN(CCc3c([nH]c4ccccc34)[C@@](C(=O)OC)(c3cc4c(cc3OC)N(C=O)[C@H]3[C@@](O)(C(=O)OC)[C@H](OC(C)=O)[C@]5(CC)C=CCN6CC[C@]43[C@@H]65)C2)C1 [Vincristine]	0.0109	0.0107	0.0146	0.0078	0.00573	0.00959	0.00773	0.00409
Cc1c(C)c2c(c(C)c1O)CC[C@@](C)(CCC[C@H](C)CCC[C@H](C)CCCC(C)C)O2 [Vitamin E (alpha-tocopherol)]	0.000507	0.00061	0.00065	0.000804	0.000801	0.000821	0.000787	0.000619
O=C(CCCCCCC(=O)Nc1ccccc1)NO [Vorinostat (SAHA)]	0.000292	0.000531	0.00062	0.000701	0.000769	0.000933	0.000792	0.00204
Oc1nc(-c2ccc(C(F)(F)F)cc2)nc2c1CSCC2 [XAV939]	0.000602	0.000779	0.00161	0.0011	0.00144	0.000899	0.00125	0.000535
CCC(C)(NC(=O)c1cc(Cl)c(C)c(Cl)c1)C(=O)CCl (centres undefined) [Zoxamide]	0.000603	0.00067	0.000658	0.00083	0.000697	0.000659	0.00147	0.00584

2 records drawn at random from those above:
Structure (SMILES)	cell health score [1]	cell health score [2]	cell health score [3]	cell health score [4]	cell health score [5]	cell health score [6]	cell health score [7]	cell health score [8]
CCC(C)(NC(=O)c1cc(Cl)c(C)c(Cl)c1)C(=O)CCl (centres undefined) [Zoxamide]	0.000603	0.00067	0.000658	0.00083	0.000697	0.000659	0.00147	0.00584
COc1cc(OC)nc(NC(=O)NS(=O)(=O)c2ncccc2OCC(F)(F)F)n1 [Trifloxysulfuron-sodium]	0.000566	0.000733	0.00126	0.000954	0.0011	0.000761	0.00115	0.000551
